Experimental data as given in publication PMC5570892, “Indole-based perenosins as highly potent HCl transporters and potential anti-cancer agents” (Scientific Reports, 2017).
“And” between values parts separate entries of the source, which are not always exact repeats. Equal entries are not always repeated.

Assays:
MDA-MB-231 cells = experiment: MTT cell viability assay; assay type: cell-based, human; settings: IC50 (24 h) divided IC50 (72 h)
Description: Herein, we carried out further in vitro studies at the University of Barcelona for the full library of perenosins. Single dose screening for cell viability using the methylthiazoletetrazolium (MTT) colorimetric assay over five different cell lines (cancer cells MCF-7, MDA-MB-231, A549 and SW620, and non-cancerous human cells MCF-10A) was conducted.
While perenosin 5, with pentyl substituent at R3, has similar cell viability effects as 1d, bis-indole perenosin 7 with pentyl substituent at R1 has a moderate degree of late onset by a factor of 7.
S11.1 Cell Lines and Culture Conditions
The human cell lines were obtained from the American Type Culture Collection (ATCC, Manassas VA). Breast adenocarcinoma MDA-MB-231 and MCF-7 cells were maintained in DMEM:F12 media (1:1; Biological Industries, Beit Haemek, Israel), and 10 µg/ml insulin and 50 µM sodium pyruvate from Sigma-Aldrich Chemical Co. (St. Louis, MO) were added to MCF-7 cells. Lung adenocarcinoma A549 and colorectal adenocarcinoma SW620 cells were cultured in DMEM media. All were supplemented with 10% foetal bovine serum (FBS; Invitrogen-Life Technologies, Carlsbad, CA) and 100 U/mL penicillin, 100 µg/mL streptomycin and 2 mM L-glutamine, all from Biological Industries.
Mammary epithelial MCF-10A cells were maintained in DMEM:F12 media supplemented with 5% horse serum (Life Technologies), 20 ng/ml EGF, 0.5 µg/ml Hydrocortisone, 100 ng/ml Cholera toxin, 10 µg/ml insulin all from Sigma-Aldrich and 100 U/ml penicillin, 100 µg/ml streptomycin, and 2 mM L- glutamine (Biological Industries). Cells were grown at 37 °C under a 5% CO2 atmosphere.
S11.2 Cell Viability Assays
Cell viability was evaluated using the methylthiazoletetrazolium (MTT) colorimetric assay. Cancer cells (MCF-7, MDA-MB-231, A549 and SW620) or non-cancerous human cells MCF-10A cells were harvested (10^4 cells/well) in 96-well plates in a final volume of 100 µl and allowed to grow overnight.
After 24 h, vehicle solution (DMSO) or experimental compounds were added at 10 µM (single point experiment) or at different ranging concentrations (0.8-100 µM) to the assay plate and were incubated for 24 or 72 h. Then, 10 µl of MTT (5 mg/ml; Sigma-Aldrich) were added and the plates were incubated for 4 h at 37°C. 100 µl of DMSO (Sigma-Aldrich) were added to dissolve crystals and the reading was taken spectrophotometrically at 570 nm using a multi-well plate reader (Multiskan FC, Thermo Scientific, Waltham, MA, USA). Cell viability and inhibitory concentration (IC) values were obtained using GraphPad Prism v5.0 (Graphpad Software, San Diego, CA, USA). All data are shown as the mean value ± standard deviation (S.D.) of three independent experiments.

[1] = NMDG-Cl assay by HPTS (H^+/Cl^− symport); assay type: biochemical; settings: for SG chloride selectivity: EC50 in absence of Gra divided by EC50 (Gra)
Description: The selectivity for Cl^−>H^+/OH^− transport of the perenosins was quantified using a modified NMDG-Cl assay. Unilamellar vesicles loaded with HPTS (1 mM) and N-methyl-D-glucamine chloride (NMDG-Cl) (100 mM), buffered to pH 7 with HEPES (10 mM) were prepared. Free base NMDG (0.5 M) was added increasing the extravesicular solution to pH 8, and the dissipation of this gradient following the addition of receptors was monitored. Dissipation of pH gradient indicates H^+/Cl^− symport (or the functionally equivalent OH^−/Cl^− exchange) mediated by perenosins. Gramicidin D (Gra) is a proton channel added to facilitate H^+ transport. The addition of oleic acid (OA), a naturally occurring fatty acid found in cell membranes, allowed the investigation of the enhancement in H^+/Cl^− symport, in the presence of oleic acid. Anion transporters can assist the fatty acid flip-flop mechanism by taking on the role of a flippase for fatty acid anions via binding to the anionic carboxylate head group, masking the charge and allowing rapid passage of the head group through the lipid bilayer. This in turn accelerates the natural proton transport mediated by fatty acids in biological membranes.
For all cases EC50 values were obtained from dose-response experiments and subsequent Hill analysis (see Supplementary Information). Chloride selectivity was then quantified to give a selectivity factor (SG), shown in Table 2, using the ratio of the EC50 values. From the previous cationophore coupled assays, it was evident that the capability of perenosins to facilitate electrogenic chloride transport is negligible, therefore an absence in selectivity for Cl^−>H^+/OH^− was expected. […] FOA values for the overall H^+/Cl^− cotransport rate were calculated for compounds 1d and 2–6 in the presence of OA and are also shown in Table 2. […] In the presence of fatty acids, an alternative pathway that involves the diffusion of the fatty acid complex and free fatty acids could replace this step. […] This may be likely due to the competitive binding of the receptors to the carboxylate head group so inhibiting chloride binding and transport.
S10.8. General Procedure for the HPTS Assay
(§1) Unilamellar vesicles were prepared using previously reported literature procedures16. A lipid film of POPC (1-palmitoyl-2-oleoyl-sn-glycero-3-phosphocholine) was prepared from a chloroform solution under reduced pressure and then dried under vacuum for 4 or more hours. The lipid film was rehydrated by vortexing with an internal solution containing HPTS (1 mM). The lipid suspension was then subjected to 9 freeze-thaw cycles and left to rest at room temperature for 30 minutes. After this, the suspension was extruded 25 times through a 200 nm polycarbonate membrane resulting in unilamellar vesicles of a mean diameter of 200 nm. The un-encapsulated HPTS was removed by size exclusion chromatography using a sephadex G-25 column and an external solution eluent that does not contain HPTS. The lipid solution obtained after dialysis was diluted to a standard volume (usually 10 mL) with the external buffered solution to obtain a lipid stock of known concentration.
In each experiment identical internal and external solutions were used with various salts (NMDG -Cl or sodium gluconate) buffered with HEPES (10 mM) to pH 7.0, and are detailed below.
The lipid stock was diluted with the external buffer solution to a standard volume (2.5 mL), to afford a solution with a lipid concentration of 0.1 mM. The compounds were added as a DMSO solution (10 μL) and when an assisting ionophore (gramicidin) or oleic acid (a naturally occurring monosaturated fatty acid) was used this was also added as a DMSO solution (5 μL, 0.1 mol% or 2 mol% respectively (with respect to lipid)). To start the experiment, after the addition of the compounds, a base pulse (25 μL, of NMDG or TBAOH (0.5 M)) was spiked in to generate a pH gradient across the membrane. […]

[2] = 1H NMR dilution studies (self-association); assay type: physicochemical; settings: MeCN-d3, NH proton, Nelder-Mead fit
[3] = Cl^−/NO3^− antiport assay by chloride ISE; assay type: biochemical; settings: Hill analysis
Description: The chloride transport properties of the new perenosins 2–8 were compared to 1d using the chloride/nitrate exchange assay monitored by a chloride ion selective electrode (ISE). Typically, unilamellar vesicles were prepared from POPC, containing an intravesicular NaCl solution (489 mM with 5 mM phosphate buffer at pH 7.2) suspended in a NaNO3 solution (489 mM with 5 mM phosphate buffer at pH 7.2). All perenosins were added as a DMSO solution and the rate of chloride efflux was monitored by the chloride ISE. At the end of the experiment (300 s), detergent was added to lyse the vesicles and obtain the 100% chloride efflux reading. Dose response studies of 1d and 2–8 were performed to allow Hill analysis, giving the EC50 values and Hill coefficients as shown in Table 2.
The external pH of cancer cells (pH 6.7[53]) is slightly acidic compared to healthy cells (pH 7.2–7.5[54]). […] To investigate the effect of pH on the chloride transport capabilities unilamellar vesicles were loaded with NaCl (489 mM) and suspended in NaNO3 (489 mM), and the internal and external solutions were buffered to pH 4.5, 6.5, 7.2 and 10 using various buffers (more detail can be found in the Supplementary Information). Compounds 1d and 2–8 were then tested in a single point screen at 0.1 mol% loading (Fig. 5). At pH 4.5 the perenosins exist predominantly as the active protonated species and so all compounds show moderate to high chloride transport properties, whereas, there is no chloride transport observed at pH 10 (see Supplementary Information for results).
S10. Anion Transport Studies
S10.1. General Procedure for the ISE Assay
as §1, with “procedures7-9.” for “procedures16.”, “(1-palmitoyl-2-oleoyl-sn-glycero-3-phosphocholine) or POPC:cholesterol (7:3 molar ratio)” for “(1-palmitoyl-2-oleoyl-sn-glycero-3-phosphocholine)”, “of buffered metal chloride salt (usually 489 mM MCl).” for “containing HPTS (1 mM).”, “large unilamellar vesicles were dialysed in the corresponding” for “un-encapsulated HPTS was removed by size exclusion chromatography using a sephadex G-25 column and an”, “for a minimum of 2 hours to remove any unencapsulated metal salts.” for “eluent that does not contain HPTS.”
Internal and external solutions vary for each experiment and are detailed for each. Experiments conducted at different pHs required different buffers (citrate buffer for pH 4.5; phosphate buffer for pH 6.5 and pH 7.2; and ethanolamine buffer for pH 10) however, a constant buffer concentration (5 mM) and total ionic strength (500 mM) was maintained.
The lipid stock was diluted with the external buffer solution to a standard volume (5 mL), to afford a solution with a lipid concentration of 1 mM. The compounds were added as a DMSO solution (10 μL) at the start of the experiment and the resulting chloride efflux was monitored using a chloride selective electrode over 5 minutes. After this time, detergent (50 μL of Triton X-100 (11 w%) in H2O:DMSO (7:1 v/v)) was added to lyse the vesicles and after 7 minutes a final chloride efflux reading was taken. […]

Compound | FA factor of activity enhancement (MDA-MB-231 cells) | SG chloride selectivity [1] | n (Hill coefficient) Cl^−/NO3^− at pH 7.2 (by ISE) [3] | further results
Cc1cc(/N=C/c2[nH]c(C)cc2C)c2[nH]ccc2c1 [Perenosin 1c] | 1.7 |  |  | 
Cc1cc(C)c(/C=N/c2cc(C(F)(F)F)cc3cc[nH]c23)[nH]1 [Perenosin 1b] | 1.5 |  |  | 
CCCCCc1cc2cc(C(F)(F)F)cc(/N=C/c3[nH]c(C)cc3C)c2[nH]1 [Perenosin 3] |  | 1.3 |  | 
Cc1cc(C)c(/C=N/c2cccc3cc[nH]c23)[nH]1 [Perenosin 1a] | 1.6 |  |  | 
CCCCCc1cc(/N=C/c2[nH]c3ccccc3c2C)c2[nH]ccc2c1 [Perenosin 7] | 7 and 6.7 |  |  | 
CCCCCc1cc2cc(C)cc(/N=C/c3[nH]c4ccccc4c3C)c2[nH]1 [Perenosin 8] |  |  |  | dimerization constant (K d) [2]: negligible association
CCCCCc1cc2cc(C)cc(/N=C/c3[nH]c(C)cc3C)c2[nH]1 [Perenosin 2] |  | 1.7 | 1.3 | dimerization constant (K d) [2]: 2.2 M⁻¹; equilibrium of aggregation (K e) [2]: 4.39 M⁻¹
CCCCCc1c(C)[nH]c(/C=N/c2cc(C)cc3cc[nH]c23)c1C [Perenosin 5] | 1.5 | 2.4 | 1.3 | 
CCCc1cc2cc(C)cc(/N=C/c3[nH]c(C)cc3C)c2[nH]1 [Perenosin 4] |  | 1.8 | 1.1 | FOA factor of enhancement ([1]; EC50 in absence of Gra or OA divided by EC50 (OA)): 9 and 8.6
CCCCCc1cc2cc(C)cc(/N=C/c3[nH]c(C)c(CCCCC)c3C)c2[nH]1 [Perenosin 6] |  | 1.2 | 0.3 | dimerization constant (K d) [2]: 0.000355 M⁻¹; equilibrium of aggregation (K e) [2]: 0.00071 M⁻¹
COc1cc(/N=C/c2[nH]c(C)cc2C)c2[nH]ccc2c1 [Perenosin 1e] | 1.2 |  |  | 
CCCCCc1cc(/N=C/c2[nH]c(C)cc2C)c2[nH]ccc2c1 [Perenosin 1d] | 1.5 | 1.6 | 1.2 | 
